From PMC7367456
These are yes or no findings as the source states them, for the method shown. Some binding calls cover weakened binding; strength is not graded here.

Experiments:
[1] = molecular target: GLUTAMINE SYNTHASE 2 (GLN2), Arabidopsis thaliana (Arabidopsis thaliana (endogenous in leaves)) (UniProt Q43127); test: native gel or EMSA; 2D: Clear Native PAGE then 12% SDS-PAGE of untreated A. thaliana leaf soluble extract (90 ug protein), SYPRO total protein stain
[2] = molecular target: GLUTAMINE SYNTHASE 2 (GLN2), Arabidopsis thaliana (Arabidopsis thaliana (endogenous in leaves)) (UniProt Q43127); test: native gel or EMSA; 2D: Clear Native PAGE then 12% SDS-PAGE of A. thaliana leaf soluble extract pre-treated with 0.25% SDS for 60 minutes, SYPRO total protein stain, compared with the untreated sample

- binding [1]: binds
- binding [2]: no binding (condition: with 0.25% SDS)
B1: GLUTAMINE SYNTHASE 2 (GLN2), Arabidopsis thaliana (enzyme, UniProt Q43127 46-430)
chain: GFRVLALQSDNSTVNRVETLLNLDTKPYSDRIIAEYIWIGGSGIDLRSKSRTIEKPVEDPSELPKWNYDGSSTGQAPGEDSEVILYPQAIFRDPFRGGNNILVICDTWTPAGEPIPTNKRAKAAEIFSNKKVSGEVPWFGIEQEYTLLQQNVKWPLGWPVGAFPGPQGPYYCGVGADKIWGRDISDAHYKACLYAGINISGTNGEVMPGQWEFQVGPSVGIDAGDHVWCARYLLERITEQAGVVLTLDPKPIEGDWNGAGCHTNYSTKSMREEGGFEVIKKAILNLSLRHKEHISAYGEGNERRLTGKHETASIDQFSWGVANRGCSIRVGRDTEAKGKGYLEDRRPASNMDPYIVTSLLAETTLLWEPTLEAEALAAQKLSLNV
